In patent publication US9248145B2, “Two alkylresorcinol synthase genes from sorghum; cloning, expression, transformation and characterization” (The United States of America, as represented by The …, priority 2010, dated 2016):

Key:
Assay in all cases: Polyketide synthase enzyme assay, alkylresorcinol synthase activity
Assay type in all cases: biochemical, Oryza sativa
[1] = system: recombinant Os10g08620
Method: (§1) Polyketide synthase enzyme assays, performed in triplicate, contained 100 mM potassium phosphate buffer (pH 7.0), 40 μM malonyl-CoA, 25 μM starter unit (e.g., palmitoyl-CoA), and 2 μg protein in a 200 μL volume at 30° C. for 15 min. […] Reactions were quenched by addition of 10 μL of 20% HCl, and products were extracted by phase partitioning with 1 ml of ethyl acetate. The organic phase (upper layer) obtained by centrifugation at ˜14,000×g for 1 min was transferred to a fresh tube, dried under vacuum, and subsequently analyzed by GC-EI-MS as a trimethysilyl (TMS) derivative. Product formation was quantified using selective ion monitoring at m/z 268, a fragment ion common to all alkylresorcinols, generated by benzylic cleavage of the alkyl side chain. The identification of the m/z 268 [(5-methyl-1,3 phenylene)bis(oxy)bis(TMS)]^+ base ion and the parent [M]^+ provide confirmation of the 5-alkylresorcinolic structure as well as the length and degree of saturation of the associated side chain (Occolowitz, 1964. Anal. Chem. 36:2177-2181; Suzuki et al. 1996, supra; Suzuki at al. 2003, supra).
(§2) Enzyme assays, performed in triplicate, for starter unit CoA kinetics contained 100 mM potassium phosphate buffer (pH 7.0), 40 μM [2-^14C]-malonyl-CoA (50-60 mCi/mmol, 1.85-2.22 GBq/mmol; American Radiolabeled Chemicals, Inc., St. Louis, Mo.), 1.43-10 μM starter unit (e.g., palmitoyl-CoA), and 0.75 μg protein in a 200 μL volume at 30° C. for 5 min. Enzyme assays for malonyl-CoA kinetics contained 100 mM potassium phosphate buffer (pH 7.0), 1.66-25 μM [2-^14C]-malonyl-CoA, 25 μM starter unit (palmitoleoyl-CoA), and 0.75 μg protein in a 200 μL volume at 30° C. for 5 min. Reactions were quenched by addition of 10 μL of 20% HCl. The products were extracted as described above, and were separated by thin layer chromatography (silica gel 60 F254; chloroform:ethyl acetate=70:30; 15 min). Product detection and formation was quantified through the use of the Cyclone storage phosphor system and OptiQuant 3.0 image analysis software (PerkinElmer, Wellesley, Mass.). Data were fit to the Michaelis-Menten equation using the Sigma Plot 9.01 enzyme kinetics module (Systat, Inc., San Jose, Calif.).
(§3) To explore this possibility, the predicted open reading frames encoded by O. sativa (cv. Nipponbare) LOC_Os05g12180, LOC_Os10g08620, and LOC_Os10g07040, were also expressed in E. coli as N-terminal polyhistidine fusions, and tested for alkylresorcinol synthase activity with the same panel of fatty acyl-CoA substrates used for recombinant ARS1 and ARS2 enzymatic studies (FIG. 4).

[2] = system: recombinant Os10g07040
Method: as §1, §2, §3

[3] = system: recombinant Os05g12180
Method: as §1, §2, §3

CCCCCCCC(=O)SCCNC(=O)CCNC(=O)[C@H](O)C(C)(C)COP(=O)(O)OP(=O)(O)OC[C@H]1O[C@@H](n2cnc3c(N)ncnc32)[C@H](O)[C@@H]1OP(=O)(O)O [capryloyl-CoA]
triketide pyrone derailment product, share of the total moles product formed [1]: approximately 8%
triketide pyrone derailment product, share of the total moles product formed [2]: approximately 8%
triketide pyrone derailment product, share of the total moles product derived from the starter [3]: approximately 7%

CCCCCCCCCCCC(=O)SCCNC(=O)CCNC(=O)[C@H](O)C(C)(C)COP(=O)(O)OP(=O)(O)OC[C@H]1O[C@@H](n2cnc3c(N)ncnc32)[C@H](O)[C@@H]1OP(=O)(O)O [lauroyl-CoA]
triketide pyrone derailment product, share of the total moles product formed [2]: ~6%
triketide pyrone derailment product, share of the total moles product derived from the starter [3]: approximately 8%

CCCCCCCCCCCCCC(=O)SCCNC(=O)CCNC(=O)[C@H](O)C(C)(C)COP(=O)(O)OP(=O)(O)OC[C@H]1O[C@@H](n2cnc3c(N)ncnc32)[C@H](O)[C@@H]1OP(=O)(O)O [myristoyl-CoA]
triketide pyrone derailment product, share of the total moles product formed [2]: < 5%

CCCCCC(=O)SCCNC(=O)CCNC(=O)[C@H](O)C(C)(C)COP(=O)(O)OP(=O)(O)OC[C@H]1O[C@@H](n2cnc3c(N)ncnc32)[C@H](O)[C@@H]1OP(=O)(O)O [caproyl-CoA]
triketide pyrone derailment product, share of the total moles product formed [1]: ~17%
triketide pyrone derailment product, share of the total moles product formed [2]: ~20%
triketide pyrone derailment product, share of the total moles product derived from the starter [3]: ~11%
